Measured values: paper PMC12540984
Results are given in words; binding and its absence hold for the method and conditions named. Binding seen in cells or lysates may run through a third protein. Some binding calls cover weakened binding; strength is not graded here.

By UniProt entry, the sequences of proteins in these tests, tags left out. Where a name states a change or a piece, a line headed by the entry shows the natural chain unless it says otherwise. Chains listed by the source or under a name are the forms on record and can include a tag or linker.
UniProt Q96J87: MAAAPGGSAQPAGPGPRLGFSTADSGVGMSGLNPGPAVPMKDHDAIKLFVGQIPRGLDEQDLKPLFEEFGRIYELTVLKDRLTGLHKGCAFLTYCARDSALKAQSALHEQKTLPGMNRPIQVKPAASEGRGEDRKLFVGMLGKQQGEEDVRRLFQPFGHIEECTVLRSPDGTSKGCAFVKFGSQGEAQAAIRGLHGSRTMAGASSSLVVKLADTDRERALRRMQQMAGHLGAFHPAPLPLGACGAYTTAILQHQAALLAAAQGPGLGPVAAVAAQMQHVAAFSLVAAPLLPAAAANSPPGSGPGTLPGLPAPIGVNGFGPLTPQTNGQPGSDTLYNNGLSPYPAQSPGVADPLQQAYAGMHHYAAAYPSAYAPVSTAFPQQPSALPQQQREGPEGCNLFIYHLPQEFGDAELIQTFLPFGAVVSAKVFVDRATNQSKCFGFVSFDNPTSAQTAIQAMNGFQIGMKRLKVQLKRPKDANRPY
Flag-tagged CELF6 (Q96J87, form named): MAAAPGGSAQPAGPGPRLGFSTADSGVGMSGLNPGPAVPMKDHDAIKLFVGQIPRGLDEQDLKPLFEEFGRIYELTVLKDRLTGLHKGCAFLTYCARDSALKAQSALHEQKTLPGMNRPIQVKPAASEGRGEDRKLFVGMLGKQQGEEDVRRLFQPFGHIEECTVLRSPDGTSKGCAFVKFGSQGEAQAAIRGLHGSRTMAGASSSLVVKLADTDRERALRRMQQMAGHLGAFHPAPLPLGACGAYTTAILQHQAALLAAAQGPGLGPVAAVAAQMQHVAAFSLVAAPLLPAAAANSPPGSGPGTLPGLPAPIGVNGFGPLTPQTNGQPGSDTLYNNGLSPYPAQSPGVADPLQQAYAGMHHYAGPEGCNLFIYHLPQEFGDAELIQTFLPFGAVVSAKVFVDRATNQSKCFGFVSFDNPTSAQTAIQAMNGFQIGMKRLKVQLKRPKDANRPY
UniProt Q00987: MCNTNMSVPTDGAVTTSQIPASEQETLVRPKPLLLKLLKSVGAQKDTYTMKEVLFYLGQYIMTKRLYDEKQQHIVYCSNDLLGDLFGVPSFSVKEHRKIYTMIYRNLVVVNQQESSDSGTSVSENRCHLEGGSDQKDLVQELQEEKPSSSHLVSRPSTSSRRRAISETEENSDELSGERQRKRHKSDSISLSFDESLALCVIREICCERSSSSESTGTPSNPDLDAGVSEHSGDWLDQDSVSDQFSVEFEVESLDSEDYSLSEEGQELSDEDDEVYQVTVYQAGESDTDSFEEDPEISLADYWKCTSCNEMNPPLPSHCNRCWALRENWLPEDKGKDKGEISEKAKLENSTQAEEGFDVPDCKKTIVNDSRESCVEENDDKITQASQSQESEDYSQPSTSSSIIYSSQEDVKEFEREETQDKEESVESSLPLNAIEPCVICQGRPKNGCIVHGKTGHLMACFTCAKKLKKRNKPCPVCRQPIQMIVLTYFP

What was measured:
[1] = biological target: Flag-tagged CELF6 (human) (UniProt Q96J87); assay: co-IP; cells lysed 48 h after transfection; lysate (2 mg/mL protein; 50 mM Tris-HCl pH 7.5, 0.1% SDS, 1% Triton X-100, 150 mM NaCl) incubated with anti-Flag magnetic beads (30 μl) overnight at 4 °C, washed three times with lysis buffer, immunoblotting
[2] = biological target: endogenous CELF6 (human (endogenous in the cells used; all cell lines of the paper are human)) (UniProt Q96J87); assay: co-IP; both proteins endogenous; cells lysed 48 h after passage, CELF6 antibody added, Protein A immunoaffinity gel beads added 4 h later, immunoblotting

- binding [1]: binds
- binding [2]: binds
Substance: endogenous MDM2 (from UniProt Q00987 1-491)
